Reference: paper PMC9586991
Results are given in words; binding and its absence hold for the method and conditions named. In cells and extracts the contact can be indirect. Some entries that bind do so weakly or less than the wild type. Sequences can lack the tags named with a protein.

By UniProt entry, the sequences of proteins in these tests, tags left out.
UniProt O08788: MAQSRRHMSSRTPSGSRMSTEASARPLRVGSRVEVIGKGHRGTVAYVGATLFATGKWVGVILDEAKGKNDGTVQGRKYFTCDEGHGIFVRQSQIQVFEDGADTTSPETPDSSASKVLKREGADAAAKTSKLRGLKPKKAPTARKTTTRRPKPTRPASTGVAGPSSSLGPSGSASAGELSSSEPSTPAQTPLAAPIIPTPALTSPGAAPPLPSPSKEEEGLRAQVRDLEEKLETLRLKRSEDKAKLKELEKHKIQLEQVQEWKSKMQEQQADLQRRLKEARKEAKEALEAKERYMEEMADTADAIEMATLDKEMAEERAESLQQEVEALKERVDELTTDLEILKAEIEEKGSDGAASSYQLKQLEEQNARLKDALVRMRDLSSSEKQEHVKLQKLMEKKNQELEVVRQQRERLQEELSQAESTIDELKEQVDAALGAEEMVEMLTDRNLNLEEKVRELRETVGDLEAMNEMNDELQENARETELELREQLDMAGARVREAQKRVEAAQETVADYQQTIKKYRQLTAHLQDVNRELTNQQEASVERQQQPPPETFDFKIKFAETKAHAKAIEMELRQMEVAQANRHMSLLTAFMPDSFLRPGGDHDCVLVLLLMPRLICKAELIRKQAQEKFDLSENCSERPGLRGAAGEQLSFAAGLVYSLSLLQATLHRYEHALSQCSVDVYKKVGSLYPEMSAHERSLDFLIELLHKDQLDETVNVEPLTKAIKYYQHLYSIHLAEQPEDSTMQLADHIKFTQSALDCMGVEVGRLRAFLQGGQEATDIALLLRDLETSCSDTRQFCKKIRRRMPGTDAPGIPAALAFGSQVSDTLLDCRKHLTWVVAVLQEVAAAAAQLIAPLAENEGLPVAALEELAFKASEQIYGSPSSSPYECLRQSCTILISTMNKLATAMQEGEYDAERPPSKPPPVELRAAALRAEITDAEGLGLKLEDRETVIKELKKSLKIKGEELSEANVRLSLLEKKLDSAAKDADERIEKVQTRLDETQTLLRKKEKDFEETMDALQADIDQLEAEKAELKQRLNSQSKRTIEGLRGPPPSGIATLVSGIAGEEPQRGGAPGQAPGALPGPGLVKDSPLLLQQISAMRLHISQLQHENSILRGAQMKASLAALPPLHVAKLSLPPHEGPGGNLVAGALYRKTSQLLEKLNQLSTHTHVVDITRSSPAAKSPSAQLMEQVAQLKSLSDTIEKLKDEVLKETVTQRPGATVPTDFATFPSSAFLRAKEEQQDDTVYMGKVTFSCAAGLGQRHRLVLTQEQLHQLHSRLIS

Tests used:
[1] = target: T1, FLAG-tagged Rab44 (mouse) (UniProt Q8CB87); assay: co-IP; COS-7 cells cotransfected for 2 days with pEF-FLAG-Rab44 (or truncated mutants, or control GST) and pEF-HA-p150Glued; lysates (50 mM Hepes-KOH pH 7.2, 150 mM NaCl, 1 mM MgCl2, 5% glycerol, 0.5% NP-40) with anti-FLAG agarose beads 16 h at 4 °C; immunoblot
T1 sequence: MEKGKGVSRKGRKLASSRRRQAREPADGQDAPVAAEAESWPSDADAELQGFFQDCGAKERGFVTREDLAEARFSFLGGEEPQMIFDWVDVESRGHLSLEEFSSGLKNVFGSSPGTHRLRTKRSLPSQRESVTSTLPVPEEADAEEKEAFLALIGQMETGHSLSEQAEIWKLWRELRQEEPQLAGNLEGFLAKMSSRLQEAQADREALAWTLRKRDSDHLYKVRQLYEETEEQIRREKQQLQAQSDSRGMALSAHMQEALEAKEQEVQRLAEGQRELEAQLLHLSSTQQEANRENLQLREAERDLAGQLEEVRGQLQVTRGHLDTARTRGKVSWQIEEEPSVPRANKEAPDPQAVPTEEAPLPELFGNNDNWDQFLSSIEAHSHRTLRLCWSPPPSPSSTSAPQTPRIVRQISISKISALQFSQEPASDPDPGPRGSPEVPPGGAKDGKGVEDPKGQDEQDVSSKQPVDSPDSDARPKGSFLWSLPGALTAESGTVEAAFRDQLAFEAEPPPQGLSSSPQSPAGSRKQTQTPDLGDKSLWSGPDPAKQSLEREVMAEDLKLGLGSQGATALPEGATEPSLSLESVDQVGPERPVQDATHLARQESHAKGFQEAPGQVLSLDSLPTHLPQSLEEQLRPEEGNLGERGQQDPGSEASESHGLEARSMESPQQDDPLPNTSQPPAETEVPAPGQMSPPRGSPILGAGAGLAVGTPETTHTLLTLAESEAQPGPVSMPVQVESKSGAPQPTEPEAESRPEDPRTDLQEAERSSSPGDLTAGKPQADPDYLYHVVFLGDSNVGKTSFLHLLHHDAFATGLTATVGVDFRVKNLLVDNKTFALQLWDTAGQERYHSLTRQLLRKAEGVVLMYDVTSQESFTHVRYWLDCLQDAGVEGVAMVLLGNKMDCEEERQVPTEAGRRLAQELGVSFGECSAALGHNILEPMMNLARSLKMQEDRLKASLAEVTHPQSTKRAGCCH

[2] = target: T1, FLAG-tagged Rab44 (mouse); assay: co-IP; COS-7 cell lysates with FLAG-Rab44 or FLAG-Rab44ΔN and HA-p150Glued, 2 mM EGTA or 10 μM free Ca2+ added to the lysates; anti-FLAG agarose beads 16 h at 4 °C; immunoblot
[3] = target: T2, FLAG-Rab44 expressed in B16-F1 melanoma cells (mouse) (UniProt Q8CB87); assay: co-IP; B16-F1 cells transfected for 2 days with pEF-FLAG-Rab44; lysates with anti-FLAG agarose beads 16 h at 4 °C; immunoblot for the endogenous proteins
T2 sequence: T1 sequence

binding [3] | Substance | binding [1] | binding [2]
 | hemagglutinin (HA)-tagged p150^Glued (from UniProt O08788 1-1281) | binds | binds
binds | endogenous p150^Glued (from UniProt O08788 1-1281) |  | 
